Consider one substance from article doi:10.1101/2025.11.27.690698 (bioRxiv, 2025).

Chains of the proteins cited; added tags and fusions are not shown. Lines headed by an entry give the natural chain unless they say otherwise; changes in a name come on top. Residues count along the entry.
UniProt Q86W26, 4-482, stated change not applied: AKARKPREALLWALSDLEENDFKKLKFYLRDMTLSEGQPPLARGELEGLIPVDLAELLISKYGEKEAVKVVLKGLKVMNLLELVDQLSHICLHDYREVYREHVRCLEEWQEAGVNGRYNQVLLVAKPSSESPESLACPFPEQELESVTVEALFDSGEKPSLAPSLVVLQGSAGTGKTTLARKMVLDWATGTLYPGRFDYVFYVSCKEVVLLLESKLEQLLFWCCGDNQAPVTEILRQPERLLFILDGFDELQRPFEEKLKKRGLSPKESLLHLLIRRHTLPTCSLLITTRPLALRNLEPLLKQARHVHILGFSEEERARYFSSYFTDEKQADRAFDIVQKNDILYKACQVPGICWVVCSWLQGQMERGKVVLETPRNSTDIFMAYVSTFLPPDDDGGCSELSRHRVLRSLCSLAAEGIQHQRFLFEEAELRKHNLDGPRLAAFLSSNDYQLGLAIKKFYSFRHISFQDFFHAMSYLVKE

In this assay the target is human NLRP10ΔHD2–tail (aa 4-482) (human) (UniProt Q86W26). The assay is described as follows: SEC. (In gel filtration, larger molecules generally elute earlier.)

Results are given in words; binding and its absence hold for the method and conditions named.

With “human NLRP10ΔHD2–tail (aa 4-482) (from UniProt Q86W26 4-482) (domain or fragment)”, the binding result was “no binding”.
